The source of these data is paper PMC12540995.

Amino acid sequences for entries named in this document (tags omitted).
UniProt P27694: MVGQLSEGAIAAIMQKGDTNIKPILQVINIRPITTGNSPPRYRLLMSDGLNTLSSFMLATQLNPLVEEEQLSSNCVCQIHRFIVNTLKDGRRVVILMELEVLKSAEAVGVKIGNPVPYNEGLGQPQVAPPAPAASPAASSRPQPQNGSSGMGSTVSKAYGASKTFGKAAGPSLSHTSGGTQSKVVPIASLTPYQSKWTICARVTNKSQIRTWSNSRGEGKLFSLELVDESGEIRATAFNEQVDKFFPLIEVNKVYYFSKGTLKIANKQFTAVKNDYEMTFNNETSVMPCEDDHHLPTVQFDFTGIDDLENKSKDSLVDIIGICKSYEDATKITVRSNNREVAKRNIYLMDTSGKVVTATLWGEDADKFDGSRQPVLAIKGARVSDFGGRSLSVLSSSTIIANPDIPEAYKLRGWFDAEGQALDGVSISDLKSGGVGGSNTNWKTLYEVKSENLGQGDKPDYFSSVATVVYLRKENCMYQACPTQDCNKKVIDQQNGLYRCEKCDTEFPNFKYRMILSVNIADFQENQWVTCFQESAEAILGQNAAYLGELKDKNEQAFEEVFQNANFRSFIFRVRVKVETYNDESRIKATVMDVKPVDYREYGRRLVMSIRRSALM
UniProt Q63HN8: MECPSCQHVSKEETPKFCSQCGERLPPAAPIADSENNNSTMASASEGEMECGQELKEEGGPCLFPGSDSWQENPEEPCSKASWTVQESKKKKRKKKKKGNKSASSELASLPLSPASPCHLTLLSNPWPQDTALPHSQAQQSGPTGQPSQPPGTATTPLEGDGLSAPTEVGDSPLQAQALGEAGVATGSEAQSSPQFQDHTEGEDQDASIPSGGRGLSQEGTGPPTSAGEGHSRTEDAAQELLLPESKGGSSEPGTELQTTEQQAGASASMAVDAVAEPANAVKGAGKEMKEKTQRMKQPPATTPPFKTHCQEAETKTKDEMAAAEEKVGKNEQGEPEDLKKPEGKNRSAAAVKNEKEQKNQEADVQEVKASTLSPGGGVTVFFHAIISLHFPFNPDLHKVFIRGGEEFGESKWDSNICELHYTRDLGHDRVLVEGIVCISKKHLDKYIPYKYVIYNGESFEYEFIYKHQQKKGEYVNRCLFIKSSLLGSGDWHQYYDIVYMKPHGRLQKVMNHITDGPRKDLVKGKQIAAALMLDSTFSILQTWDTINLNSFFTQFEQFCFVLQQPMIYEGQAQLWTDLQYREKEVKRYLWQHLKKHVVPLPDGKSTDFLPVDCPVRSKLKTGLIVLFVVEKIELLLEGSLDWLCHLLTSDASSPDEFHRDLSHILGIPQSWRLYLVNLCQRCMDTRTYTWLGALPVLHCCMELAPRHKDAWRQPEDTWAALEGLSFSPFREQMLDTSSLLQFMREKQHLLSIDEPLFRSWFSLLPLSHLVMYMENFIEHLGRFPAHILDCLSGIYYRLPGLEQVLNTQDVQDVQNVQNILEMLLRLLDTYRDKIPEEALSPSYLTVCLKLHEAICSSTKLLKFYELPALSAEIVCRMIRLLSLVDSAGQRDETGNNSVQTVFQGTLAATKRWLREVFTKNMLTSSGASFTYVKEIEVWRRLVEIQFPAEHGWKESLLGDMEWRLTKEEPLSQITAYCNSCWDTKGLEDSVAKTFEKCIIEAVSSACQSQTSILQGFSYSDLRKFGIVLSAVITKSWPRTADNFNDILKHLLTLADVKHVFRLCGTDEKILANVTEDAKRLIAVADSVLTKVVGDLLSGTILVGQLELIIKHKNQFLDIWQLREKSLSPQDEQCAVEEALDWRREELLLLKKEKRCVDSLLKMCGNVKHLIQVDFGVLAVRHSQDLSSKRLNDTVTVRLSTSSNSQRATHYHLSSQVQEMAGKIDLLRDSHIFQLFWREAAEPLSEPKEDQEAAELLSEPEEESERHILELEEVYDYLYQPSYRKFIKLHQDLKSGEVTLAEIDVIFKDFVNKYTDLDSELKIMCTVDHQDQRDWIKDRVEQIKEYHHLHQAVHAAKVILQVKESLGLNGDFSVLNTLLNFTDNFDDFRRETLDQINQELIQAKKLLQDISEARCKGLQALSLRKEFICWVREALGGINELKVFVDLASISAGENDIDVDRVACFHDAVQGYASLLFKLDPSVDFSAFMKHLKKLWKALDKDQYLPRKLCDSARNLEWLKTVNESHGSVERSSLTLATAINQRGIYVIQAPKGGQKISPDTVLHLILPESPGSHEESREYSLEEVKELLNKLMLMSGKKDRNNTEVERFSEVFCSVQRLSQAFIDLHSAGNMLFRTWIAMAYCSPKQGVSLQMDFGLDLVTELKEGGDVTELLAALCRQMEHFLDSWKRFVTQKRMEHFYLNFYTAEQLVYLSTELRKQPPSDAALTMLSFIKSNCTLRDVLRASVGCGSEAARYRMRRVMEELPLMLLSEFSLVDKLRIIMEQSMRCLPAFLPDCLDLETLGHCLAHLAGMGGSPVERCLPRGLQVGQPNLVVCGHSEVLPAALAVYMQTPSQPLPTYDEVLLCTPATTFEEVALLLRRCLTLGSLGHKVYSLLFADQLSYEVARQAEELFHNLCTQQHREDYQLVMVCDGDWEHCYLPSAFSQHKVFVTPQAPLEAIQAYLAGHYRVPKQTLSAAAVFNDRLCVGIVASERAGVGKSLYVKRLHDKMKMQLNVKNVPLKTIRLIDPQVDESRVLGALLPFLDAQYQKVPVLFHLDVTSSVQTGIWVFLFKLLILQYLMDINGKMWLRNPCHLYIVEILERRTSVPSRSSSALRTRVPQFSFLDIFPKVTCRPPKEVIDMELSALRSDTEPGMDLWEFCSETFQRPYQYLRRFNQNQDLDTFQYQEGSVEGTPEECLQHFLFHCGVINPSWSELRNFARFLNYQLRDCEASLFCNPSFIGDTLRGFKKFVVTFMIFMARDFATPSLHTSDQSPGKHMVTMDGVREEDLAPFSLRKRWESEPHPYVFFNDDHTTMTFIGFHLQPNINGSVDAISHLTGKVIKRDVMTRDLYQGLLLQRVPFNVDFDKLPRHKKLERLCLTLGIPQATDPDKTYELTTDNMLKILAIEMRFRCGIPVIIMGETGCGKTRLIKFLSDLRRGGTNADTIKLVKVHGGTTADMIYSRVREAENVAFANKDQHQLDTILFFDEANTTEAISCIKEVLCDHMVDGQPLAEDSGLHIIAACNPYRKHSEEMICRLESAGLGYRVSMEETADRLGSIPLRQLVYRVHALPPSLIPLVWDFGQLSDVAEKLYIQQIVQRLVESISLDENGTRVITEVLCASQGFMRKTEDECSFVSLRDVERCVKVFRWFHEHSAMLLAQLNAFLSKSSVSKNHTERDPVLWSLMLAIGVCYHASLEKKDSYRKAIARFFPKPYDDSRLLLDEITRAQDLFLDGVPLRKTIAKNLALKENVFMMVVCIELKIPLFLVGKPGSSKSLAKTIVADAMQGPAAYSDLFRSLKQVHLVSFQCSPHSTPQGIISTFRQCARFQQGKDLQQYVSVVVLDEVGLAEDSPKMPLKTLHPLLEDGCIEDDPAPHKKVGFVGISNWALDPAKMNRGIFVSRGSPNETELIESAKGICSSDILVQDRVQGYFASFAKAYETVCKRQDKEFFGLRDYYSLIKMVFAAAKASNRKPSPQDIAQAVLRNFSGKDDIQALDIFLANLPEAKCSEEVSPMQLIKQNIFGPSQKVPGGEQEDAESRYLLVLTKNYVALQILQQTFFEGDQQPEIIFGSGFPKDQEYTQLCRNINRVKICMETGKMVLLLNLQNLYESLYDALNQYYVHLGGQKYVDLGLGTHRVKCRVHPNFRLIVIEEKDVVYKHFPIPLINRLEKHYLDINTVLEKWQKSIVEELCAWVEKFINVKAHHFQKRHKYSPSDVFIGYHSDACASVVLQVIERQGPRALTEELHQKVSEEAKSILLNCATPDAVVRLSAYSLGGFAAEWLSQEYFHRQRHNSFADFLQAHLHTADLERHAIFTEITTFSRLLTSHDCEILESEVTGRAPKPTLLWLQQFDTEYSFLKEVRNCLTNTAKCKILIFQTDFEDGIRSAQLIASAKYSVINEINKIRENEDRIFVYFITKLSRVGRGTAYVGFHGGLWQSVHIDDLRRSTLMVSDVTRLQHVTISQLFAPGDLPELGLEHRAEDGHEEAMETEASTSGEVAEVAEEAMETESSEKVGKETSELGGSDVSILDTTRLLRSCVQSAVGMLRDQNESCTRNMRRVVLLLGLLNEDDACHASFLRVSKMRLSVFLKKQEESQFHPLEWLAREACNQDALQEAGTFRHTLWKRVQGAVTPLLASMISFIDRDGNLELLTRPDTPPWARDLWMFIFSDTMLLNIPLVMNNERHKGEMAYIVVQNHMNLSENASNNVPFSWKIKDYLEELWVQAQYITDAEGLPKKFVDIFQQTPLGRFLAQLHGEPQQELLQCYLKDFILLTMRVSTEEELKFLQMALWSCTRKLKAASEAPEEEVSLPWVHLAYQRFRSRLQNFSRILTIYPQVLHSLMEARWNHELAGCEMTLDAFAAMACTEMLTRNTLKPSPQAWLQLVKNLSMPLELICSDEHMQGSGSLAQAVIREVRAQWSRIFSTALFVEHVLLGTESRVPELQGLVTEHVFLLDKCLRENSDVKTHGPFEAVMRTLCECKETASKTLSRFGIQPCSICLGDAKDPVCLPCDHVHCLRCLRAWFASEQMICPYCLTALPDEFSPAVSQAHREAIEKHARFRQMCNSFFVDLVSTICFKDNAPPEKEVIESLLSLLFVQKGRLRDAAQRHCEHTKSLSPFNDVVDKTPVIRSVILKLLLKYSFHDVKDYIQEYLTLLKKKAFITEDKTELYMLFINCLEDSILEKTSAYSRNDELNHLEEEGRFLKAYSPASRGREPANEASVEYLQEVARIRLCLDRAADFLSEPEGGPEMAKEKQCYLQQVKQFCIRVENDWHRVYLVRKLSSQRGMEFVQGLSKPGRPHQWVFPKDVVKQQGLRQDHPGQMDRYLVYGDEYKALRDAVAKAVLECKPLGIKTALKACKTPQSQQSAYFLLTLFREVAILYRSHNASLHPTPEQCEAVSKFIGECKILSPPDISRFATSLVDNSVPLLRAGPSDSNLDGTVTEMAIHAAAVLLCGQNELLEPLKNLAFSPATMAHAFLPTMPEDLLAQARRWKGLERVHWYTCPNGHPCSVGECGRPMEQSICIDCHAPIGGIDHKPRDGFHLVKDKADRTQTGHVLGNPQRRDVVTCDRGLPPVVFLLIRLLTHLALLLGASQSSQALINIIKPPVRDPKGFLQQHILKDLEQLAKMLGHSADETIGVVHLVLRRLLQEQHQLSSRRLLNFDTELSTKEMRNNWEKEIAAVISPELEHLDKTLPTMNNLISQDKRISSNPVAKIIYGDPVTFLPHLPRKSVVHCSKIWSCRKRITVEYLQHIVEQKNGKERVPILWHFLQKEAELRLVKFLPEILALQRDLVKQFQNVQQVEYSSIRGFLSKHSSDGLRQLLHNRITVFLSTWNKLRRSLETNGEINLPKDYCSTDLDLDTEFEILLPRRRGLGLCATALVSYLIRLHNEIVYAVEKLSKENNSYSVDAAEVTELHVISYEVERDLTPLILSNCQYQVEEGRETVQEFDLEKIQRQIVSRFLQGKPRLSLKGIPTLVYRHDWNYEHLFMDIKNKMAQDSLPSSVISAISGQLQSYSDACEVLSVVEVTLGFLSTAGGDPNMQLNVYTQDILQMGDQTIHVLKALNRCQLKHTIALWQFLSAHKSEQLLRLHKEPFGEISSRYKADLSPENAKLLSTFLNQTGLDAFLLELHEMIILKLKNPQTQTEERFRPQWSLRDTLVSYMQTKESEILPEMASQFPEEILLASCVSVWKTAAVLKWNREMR

No constants are given. Whether binding was seen depends on the method and setting. Binding seen in cells or lysates may run through a third protein. Some results given as binding are weak or reduced against the parent protein; the word gives no strength.

For experiment [1], the target named is Replication protein A1 (RPA1) (human (endogenous in HEK293T)) (UniProt P27694). Nature of the experiment: co-IP; HEK293T cell lysates immunoprecipitated with control IgG, anti-RNF213 or anti-RPA1 antibodies; immunoprecipitates blotted; endogenous proteins.
Another experiment has as its target Flag-RPA1 (UniProt P27694). In words: co-IP; HEK293T cells transiently transfected with Flag-tagged constructs for 24 h; lysates incubated with anti-Flag agarose beads overnight at 4 °C; immunoprecipitates blotted.
The target of experiment [2] is RNF213 (human (endogenous in HEK293T)) (UniProt Q63HN8). In words: co-IP; HEK293T cell lysates immunoprecipitated with control IgG, anti-RNF213 or anti-RPA1 antibodies; immunoprecipitates blotted; endogenous proteins.
The next experiment addresses Flag-RNF213 (UniProt Q63HN8). In words: co-IP; HEK293T cells transiently transfected with Flag-tagged constructs for 24 h; lysates incubated with anti-Flag agarose beads overnight at 4 °C; immunoprecipitates blotted.

RNF213 (from UniProt Q63HN8 1-5207): the binding result (in experiment [1]; in the experiment with Flag-RPA1) was “binds” each time.

As to “Replication protein A1 (RPA1) (from UniProt P27694 1-616)”, the binding result (in experiment [2]; in the experiment with Flag-RNF213) was “binds” throughout.
